Publication PMC9900518

Molecular target: T1, GST-DNA ligase IV, human DNA ligase IV residues 618-911 (human) (UniProt P49917)
T1 sequence: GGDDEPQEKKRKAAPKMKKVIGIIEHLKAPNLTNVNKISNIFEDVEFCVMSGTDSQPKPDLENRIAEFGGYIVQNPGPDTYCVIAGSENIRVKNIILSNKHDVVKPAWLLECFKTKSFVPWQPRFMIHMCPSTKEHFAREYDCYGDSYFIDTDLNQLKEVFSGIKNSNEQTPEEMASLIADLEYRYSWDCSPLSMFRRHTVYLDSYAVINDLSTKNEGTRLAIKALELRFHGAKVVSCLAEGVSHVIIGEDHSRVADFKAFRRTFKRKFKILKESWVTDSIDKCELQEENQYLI
Experiment: pull-down; GST-tagged protein from E. coli immobilised on glutathione-Sepharose beads; cleared cell lysate (HEK, HeLa, Hs578T or Cos7) as the source of the partner; 4 hours at 4°C; immunoblot; only the target purified

For “FLAG-tagged full-length GIV wild type (human)”, the binding was “binds”.

No constants are given. Whether binding was seen depends on the method and setting. In cells and extracts the contact can be indirect. Binding calls can cover weak binding; strength is not graded here. Where a sequence is shown, tags or fusion partners need not be part of it.
